Results are given in words; binding and its absence hold for the method and conditions named. In cells and extracts the contact can be indirect. Some results given as binding are weak or reduced against the parent protein; the word gives no strength.

By UniProt entry, the sequences of proteins in these tests, tags left out.
UniProt Q6NZB1: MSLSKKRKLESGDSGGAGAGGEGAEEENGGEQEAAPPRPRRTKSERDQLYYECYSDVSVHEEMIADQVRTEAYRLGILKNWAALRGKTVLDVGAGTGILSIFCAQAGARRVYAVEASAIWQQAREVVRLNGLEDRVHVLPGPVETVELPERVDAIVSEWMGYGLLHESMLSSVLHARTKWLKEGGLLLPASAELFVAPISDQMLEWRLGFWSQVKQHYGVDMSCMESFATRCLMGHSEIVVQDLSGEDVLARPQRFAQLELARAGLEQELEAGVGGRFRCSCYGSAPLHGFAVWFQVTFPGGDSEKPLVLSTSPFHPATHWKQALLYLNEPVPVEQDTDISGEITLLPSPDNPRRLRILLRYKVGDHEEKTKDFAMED
UniProt P19091: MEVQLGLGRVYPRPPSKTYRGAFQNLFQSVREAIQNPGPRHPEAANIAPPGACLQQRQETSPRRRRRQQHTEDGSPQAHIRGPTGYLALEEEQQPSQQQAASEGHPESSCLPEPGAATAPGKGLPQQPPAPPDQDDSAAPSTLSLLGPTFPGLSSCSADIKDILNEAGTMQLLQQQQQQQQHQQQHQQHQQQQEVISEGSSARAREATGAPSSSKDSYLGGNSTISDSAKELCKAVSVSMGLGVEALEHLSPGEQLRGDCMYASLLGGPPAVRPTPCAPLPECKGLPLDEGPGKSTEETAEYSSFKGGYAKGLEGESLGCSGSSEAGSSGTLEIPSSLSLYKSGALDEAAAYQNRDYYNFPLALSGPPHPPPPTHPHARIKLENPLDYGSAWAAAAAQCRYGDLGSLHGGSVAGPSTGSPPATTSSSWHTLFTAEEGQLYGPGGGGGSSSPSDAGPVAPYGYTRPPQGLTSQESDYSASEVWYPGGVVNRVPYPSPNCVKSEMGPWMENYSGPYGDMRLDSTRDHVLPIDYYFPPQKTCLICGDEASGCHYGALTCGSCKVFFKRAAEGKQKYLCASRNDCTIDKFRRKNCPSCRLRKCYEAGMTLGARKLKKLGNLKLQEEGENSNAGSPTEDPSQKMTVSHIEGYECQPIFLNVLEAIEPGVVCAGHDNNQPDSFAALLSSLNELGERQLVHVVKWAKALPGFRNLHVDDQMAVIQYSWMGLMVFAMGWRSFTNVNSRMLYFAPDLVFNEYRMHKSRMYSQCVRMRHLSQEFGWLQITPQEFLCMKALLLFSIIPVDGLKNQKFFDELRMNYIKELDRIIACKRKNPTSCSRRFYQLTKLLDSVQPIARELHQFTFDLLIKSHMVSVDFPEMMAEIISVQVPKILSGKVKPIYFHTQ

This assay addresses endogenous PRMT6 (mouse) (mouse (endogenous in MN1 cells and in quadriceps muscle)) (UniProt Q6NZB1). The experiment in a line: co-IP; quadriceps muscle of 24-week-old WT and knock-in AR113Q mice; immunoprecipitation with anti-PRMT6 (Bethyl A300-929A) or nonimmune rabbit IgG, protein A magnetic beads; IP buffer 50 mM HEPES, 250 mM NaCl, 5 mM EDTA, 0.1% NP40.

In the case of “androgen receptor of WT mice (endogenous) (from UniProt P19091 1-899)”, the binding entry was “binds”.

The values are drawn from article PMC9902531.
